Results: paper PMC7970304, “The Effects of Apelin and Elabela Ligands on Apelin Receptor Distinct Signaling Profiles” (Frontiers in Pharmacology, 2021)
These are yes or no findings as the source states them, for the method shown. In cells and extracts the contact can be indirect. Some entries that bind do so weakly or less than the wild type.

Sequences of proteins named here, by UniProt entry; tags and fusion partners are left off.
UniProt P35414: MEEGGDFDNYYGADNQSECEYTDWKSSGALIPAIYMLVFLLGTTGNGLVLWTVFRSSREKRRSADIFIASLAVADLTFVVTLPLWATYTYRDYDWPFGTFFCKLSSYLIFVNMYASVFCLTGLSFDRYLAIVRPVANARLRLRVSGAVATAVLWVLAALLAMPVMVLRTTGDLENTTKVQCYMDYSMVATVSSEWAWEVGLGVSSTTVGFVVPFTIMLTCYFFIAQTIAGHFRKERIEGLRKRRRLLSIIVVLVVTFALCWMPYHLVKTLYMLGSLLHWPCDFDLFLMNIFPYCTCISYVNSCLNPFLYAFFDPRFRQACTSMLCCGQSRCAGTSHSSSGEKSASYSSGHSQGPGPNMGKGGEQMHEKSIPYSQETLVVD
UniProt P63010: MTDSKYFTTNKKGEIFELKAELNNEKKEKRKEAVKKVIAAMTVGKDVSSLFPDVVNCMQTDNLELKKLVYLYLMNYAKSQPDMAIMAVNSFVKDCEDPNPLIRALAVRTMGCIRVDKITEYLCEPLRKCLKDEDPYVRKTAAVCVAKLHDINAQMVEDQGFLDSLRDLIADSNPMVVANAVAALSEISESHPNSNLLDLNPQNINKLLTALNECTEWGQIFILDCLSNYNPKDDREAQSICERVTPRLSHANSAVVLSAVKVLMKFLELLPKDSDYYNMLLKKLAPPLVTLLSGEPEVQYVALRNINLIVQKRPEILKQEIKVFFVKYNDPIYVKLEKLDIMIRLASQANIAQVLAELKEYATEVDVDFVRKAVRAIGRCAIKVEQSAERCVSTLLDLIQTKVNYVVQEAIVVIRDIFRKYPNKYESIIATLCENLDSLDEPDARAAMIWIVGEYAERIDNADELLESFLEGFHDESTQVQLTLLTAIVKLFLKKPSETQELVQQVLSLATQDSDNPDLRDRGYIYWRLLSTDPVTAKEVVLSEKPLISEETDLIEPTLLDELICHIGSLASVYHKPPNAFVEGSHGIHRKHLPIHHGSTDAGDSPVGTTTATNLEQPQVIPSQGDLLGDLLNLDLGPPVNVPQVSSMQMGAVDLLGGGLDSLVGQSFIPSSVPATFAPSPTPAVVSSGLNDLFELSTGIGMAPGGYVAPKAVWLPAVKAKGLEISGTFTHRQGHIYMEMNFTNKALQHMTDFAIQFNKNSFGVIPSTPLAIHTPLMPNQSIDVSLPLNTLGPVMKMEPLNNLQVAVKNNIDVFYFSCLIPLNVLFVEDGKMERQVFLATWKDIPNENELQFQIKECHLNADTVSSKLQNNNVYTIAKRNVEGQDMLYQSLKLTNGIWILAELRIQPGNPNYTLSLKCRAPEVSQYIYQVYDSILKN
UniProt P34947: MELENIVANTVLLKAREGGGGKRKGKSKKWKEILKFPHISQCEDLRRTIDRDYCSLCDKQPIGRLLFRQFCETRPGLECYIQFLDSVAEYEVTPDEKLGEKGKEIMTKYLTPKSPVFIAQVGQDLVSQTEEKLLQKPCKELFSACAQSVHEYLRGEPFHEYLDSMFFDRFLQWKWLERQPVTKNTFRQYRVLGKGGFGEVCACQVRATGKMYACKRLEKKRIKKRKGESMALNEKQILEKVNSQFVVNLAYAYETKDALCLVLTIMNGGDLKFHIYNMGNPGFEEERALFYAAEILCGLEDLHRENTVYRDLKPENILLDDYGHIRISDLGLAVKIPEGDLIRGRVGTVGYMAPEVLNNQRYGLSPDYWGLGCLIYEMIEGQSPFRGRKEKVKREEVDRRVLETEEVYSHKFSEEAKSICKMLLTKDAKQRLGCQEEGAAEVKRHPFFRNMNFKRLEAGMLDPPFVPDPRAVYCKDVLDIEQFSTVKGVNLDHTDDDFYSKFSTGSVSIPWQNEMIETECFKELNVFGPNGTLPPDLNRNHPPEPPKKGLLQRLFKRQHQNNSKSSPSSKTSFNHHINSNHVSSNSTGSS
UniProt P49407: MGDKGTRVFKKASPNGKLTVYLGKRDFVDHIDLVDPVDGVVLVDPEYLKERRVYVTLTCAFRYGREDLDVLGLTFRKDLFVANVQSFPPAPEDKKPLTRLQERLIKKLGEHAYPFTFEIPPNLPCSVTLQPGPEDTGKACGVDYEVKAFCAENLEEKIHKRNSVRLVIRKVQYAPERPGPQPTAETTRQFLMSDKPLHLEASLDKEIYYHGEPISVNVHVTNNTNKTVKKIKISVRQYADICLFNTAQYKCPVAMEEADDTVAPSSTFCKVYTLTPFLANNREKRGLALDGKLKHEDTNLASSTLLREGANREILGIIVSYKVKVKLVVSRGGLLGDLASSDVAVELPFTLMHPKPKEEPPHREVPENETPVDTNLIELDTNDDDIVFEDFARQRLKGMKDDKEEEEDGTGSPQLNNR
UniProt P32121: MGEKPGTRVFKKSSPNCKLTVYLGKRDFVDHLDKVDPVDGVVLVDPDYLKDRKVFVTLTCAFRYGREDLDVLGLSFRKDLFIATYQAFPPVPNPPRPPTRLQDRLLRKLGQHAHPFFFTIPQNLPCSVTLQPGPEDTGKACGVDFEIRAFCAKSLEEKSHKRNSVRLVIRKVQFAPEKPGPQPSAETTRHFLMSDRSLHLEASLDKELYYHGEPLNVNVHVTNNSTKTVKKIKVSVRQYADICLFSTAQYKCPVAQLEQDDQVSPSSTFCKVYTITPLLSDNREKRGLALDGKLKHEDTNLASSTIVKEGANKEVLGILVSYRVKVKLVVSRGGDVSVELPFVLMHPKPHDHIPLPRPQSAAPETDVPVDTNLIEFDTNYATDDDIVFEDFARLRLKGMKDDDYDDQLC

Tests used:
[1] = target: APJ-Renilla luciferase (Rluc) (UniProt P35414); experiment: FRET or BRET; BRET in living HEK293 cells transiently co-transfected with APJ-Rluc and GRK2-GFP2 or GRK5-GFP2; stimulated with the six peptide ligands; time and dose-response curves; coelenterazine h 5 μM
APJ-Venus = APJ-Venus (UniProt P35414); experiment: FRET or BRET; BRET in living HEK293 cells transiently co-transfected with APJ-Venus and β-arrestin1-Rluc or β-arrestin2-Rluc; stimulated with the six peptide ligands; time and dose-response curves
[2] = target: β2-adaptin EYFP (AP2, β2 subunit of the clathrin adaptor) (UniProt P63010); experiment: FRET or BRET; BRET in living HEK293 cells co-transfected with APJ, β-arrestin 1-Rluc or β-arrestin 2-Rluc, and β2-adaptin-EYFP; stimulated with the six peptide ligands; time and dose-response curves, read at 30 min

Substance | binding [1] | binding (APJ-Venus) | binding [2]
GRK5-GFP2 (from UniProt P34947 1-590) (enzyme) | binds | – | –
β-arrestin1-Rluc (from UniProt P49407 1-418) | – | binds | binds
β-arrestin2-Rluc (from UniProt P32121 1-409) | – | – | binds
